Reference: patent publication US20050170397A1, “Novel receptors” (Tularik Inc., priority 2000, published 2005)
At least one structure is not confirmed: it was looked up by name or label, or the drawing left a doubt.

The chains behind the UniProt entries cited, without tags or fusion partners. Where a name states a change or a piece, a line headed by the entry shows the natural chain unless it says otherwise.
UniProt Q969V1: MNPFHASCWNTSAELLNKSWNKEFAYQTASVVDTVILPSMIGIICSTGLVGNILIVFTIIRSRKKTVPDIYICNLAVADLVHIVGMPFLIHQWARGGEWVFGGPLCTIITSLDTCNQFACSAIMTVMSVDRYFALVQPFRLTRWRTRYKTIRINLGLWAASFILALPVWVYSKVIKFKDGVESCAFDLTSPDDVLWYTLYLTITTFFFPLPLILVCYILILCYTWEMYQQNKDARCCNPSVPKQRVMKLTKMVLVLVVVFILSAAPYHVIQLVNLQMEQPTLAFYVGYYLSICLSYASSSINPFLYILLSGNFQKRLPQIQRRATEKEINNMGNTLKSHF

Target: T1, TGR342 (Homo sapiens, UniProt Q969V1)
T1 construct: The full-length TGR342 cDNA was cloned by; V5 (known only from the vector name pEF6-V5); expressed in transfected cells; host or cells: HEK293 and CHO cells, transient
Assay: aequorin luminescence assay of intracellular calcium mobilization, TGR342-transfected cells
Type: cell-based
Settings: peptides at 1 μM; HEK293 or CHO cells co-transfected with pEF6-V5/TGR342 and pcDNA3/AEQ
Experimental: HEK293 and CHO cells were transiently co-transfected with pEF6-V5/TGR342 and pcDNA3/AEQ (expressing aequorin). After 24 hours of incubation, the transfected cells were treated for one hour with serum free medium containing 2 μM coelenterazine f (Molecular Probes). The cells were then collected in the assay buffer HBSS (Hanks' Balanced Saline Solution containing 10 mM hepes and 0.1% BSA). Thereafter, the transfected cells were stimulated with the peptides at a concentration of 1 μM and the kinetics of […] from the cells was recorded with a microplate luminometer (EG & G BERTHOLT).

`C[C@H](N)C(=O)NCC(=O)N[C@H]1CSSC[C@@H](C(=O)O)NC(=O)[C@H](CO)NC(=O)[C@H]([C@@H](C)O)NC(=O)[C@H](Cc2ccccc2)NC(=O)[C@H]([C@@H](C)O)NC(=O)[C@H](CCCCN)NC(=O)[C@H](Cc2c[nH]c3ccccc23)NC(=O)[C@H](Cc2ccccc2)NC(=O)[C@H](Cc2ccccc2)NC(=O)[C@H](CC(N)=O)NC(=O)[C@H](CCCCN)NC1=O` [somatostatin] was tested, and the “effect on intracellular calcium levels (peptide library screen)” value was “Neither somatostatin nor α-MSH showed any detectable effect”.
